# Reference: the supplement of paper PMC8728848
# This is one part of the list.
# B1: SLLPI (Homo sapiens), Q8IXA5 (protein)
# chain: MVSALRGAPLIRVHSSPVSSPSVSGPRRLVSCLSSQSSALSQSGGGSTSAAGIEARSRALRRRWCPAGIMLLALVCLLSCLLPSSEAKLYGRCELARVLHDFGLDGYRGYSLADWVCLAYFTSGFNAAALDYEADGSTNNGIFQINSRRWCSNLTPNVPNVCRMYCSDLLNPNLKDTVICAMKITQEPQGLGYWEAWRHHCQGKDLTEWVDGCDF
# Columns and labels:
# Assay in all cases: glycan array binding signal (z-score within array); higher = stronger binding
# Conditions in all cases: glycan notation: IUPAC condensed, linker removed
# Gal4S(b1-4)GlcNAc = biological target: Gal4S(b1-4)GlcNAc
# Procedure, shortened: (§1)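 Glycan array data came from 3228 arrays in the Consortium for Functional Glycomics database, and only arrays with an available protein sequence were kept. Glycan names were put into IUPAC-condensed notation, and columns mapping to the same glycan were averaged. The binding signal is a within-array Z-score, averaged across arrays of one protein sequence run at different concentrations or buffers and across linkers. A negative Z-score can be read as non-binding.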
# Gal4S6S(b1-4)GlcNAc = biological target: Gal4S6S(b1-4)GlcNAc
# Procedure, shortened: as §1
# Gal6S(b1-4)Glc = biological target: Gal6S(b1-4)Glc
# Procedure, shortened: as §1
# Gal6S(b1-4)Glc6S = biological target: Gal6S(b1-4)Glc6S
# Procedure, shortened: as §1
# Gal6S(b1-4)GlcNAc = biological target: Gal6S(b1-4)GlcNAc
# Procedure, shortened: as §1
# Gal6S(b1-4)GlcNAc6S = biological target: Gal6S(b1-4)GlcNAc6S
# Procedure, shortened: as §1
# GalNAc(a1-3)Gal = biological target: GalNAc(a1-3)Gal
# Procedure, shortened: as §1
# GalNAc(a1-3)GalNAc = biological target: GalNAc(a1-3)GalNAc
# Procedure, shortened: as §1
# GalNAc(b1-3)Gal = biological target: GalNAc(b1-3)Gal
# Procedure, shortened: as §1
# [1] = biological target: GalNAc(b1-3)Gal(a1-4)Gal(b1-4)GlcNAc
# Procedure, shortened: as §1
# GalNAc(b1-3)GalNAc = biological target: GalNAc(b1-3)GalNAc
# Procedure, shortened: as §1
# GalNAc(b1-4)GlcNAc = biological target: GalNAc(b1-4)GlcNAc
# Procedure, shortened: as §1
# Glc(a1-4)Glc = biological target: Glc(a1-4)Glc
# Procedure, shortened: as §1
# Glc(a1-6)Glc(a1-6)Glc = biological target: Glc(a1-6)Glc(a1-6)Glc
# Procedure, shortened: as §1
# Glc(b1-4)Glc = biological target: Glc(b1-4)Glc
# Procedure, shortened: as §1
# Glc(b1-6)Glc = biological target: Glc(b1-6)Glc
# Procedure, shortened: as §1
# GlcA(b1-3)Gal = biological target: GlcA(b1-3)Gal
# Procedure, shortened: as §1
# GlcA(b1-3)GlcNAc = biological target: GlcA(b1-3)GlcNAc
# Procedure, shortened: as §1
# GlcA(b1-6)Gal = biological target: GlcA(b1-6)Gal
# Procedure, shortened: as §1
# [2] = biological target: GlcNAc(a1-3)Gal(b1-4)GlcNAc
# Procedure, shortened: as §1
# [3] = biological target: GlcNAc(a1-6)Gal(b1-4)GlcNAc
# Procedure, shortened: as §1
# [4] = biological target: GlcNAc(b1-2)Gal(b1-3)GalNAc
# Procedure, shortened: as §1
# [5] = biological target: GlcNAc(b1-2)Man(a1-3)[GlcNAc(b1-2)Man(a1-6)]Man(b1-4)GlcNAc(b1-4)GlcNAc
# Procedure, shortened: as §1
# GlcNAc(b1-3)Gal = biological target: GlcNAc(b1-3)Gal
# Procedure, shortened: as §1
# [6] = biological target: GlcNAc(b1-3)Gal(b1-3)GalNAc
# Procedure, shortened: as §1
# GlcNAc(b1-3)Gal(b1-4)Glc = biological target: GlcNAc(b1-3)Gal(b1-4)Glc
# Procedure, shortened: as §1
# [7] = biological target: GlcNAc(b1-3)Gal(b1-4)GlcNAc
# Procedure, shortened: as §1
# [8] = biological target: GlcNAc(b1-3)Gal(b1-4)GlcNAc(b1-3)Gal(b1-4)GlcNAc
# Procedure, shortened: as §1
# GlcNAc(b1-3)GalNAc = biological target: GlcNAc(b1-3)GalNAc
# Procedure, shortened: as §1
# GlcNAc(b1-3)Man = biological target: GlcNAc(b1-3)Man
# Procedure, shortened: as §1
# [9] = biological target: GlcNAc(b1-3)[GlcNAc(b1-4)][GlcNAc(b1-6)]GlcNAc
# Procedure, shortened: as §1
# [10] = biological target: GlcNAc(b1-3)[GlcNAc(b1-6)]Gal(b1-4)GlcNAc
# Procedure, shortened: as §1
# [11] = biological target: GlcNAc(b1-3)[GlcNAc(b1-6)]GalNAc
# Procedure, shortened: as §1
# [12] = biological target: GlcNAc(b1-4)Gal(b1-4)GlcNAc
# Procedure, shortened: as §1
# GlcNAc(b1-4)GlcNAc = biological target: GlcNAc(b1-4)GlcNAc
# Procedure, shortened: as §1
# [13] = biological target: GlcNAc(b1-4)GlcNAc(b1-4)GlcNAc
# Procedure, shortened: as §1
# [14] = biological target: GlcNAc(b1-4)GlcNAc(b1-4)GlcNAc(b1-4)GlcNAc(b1-4)GlcNAc
# Procedure, shortened: as §1
# [15] = biological target: GlcNAc(b1-4)GlcNAc(b1-4)GlcNAc(b1-4)GlcNAc(b1-4)GlcNAc(b1-4)GlcNAc
# Procedure, shortened: as §1
binder,measurement,setting,value
B1,glycan array binding signal (z-score),Gal4S(b1-4)GlcNAc,-0.196
same,glycan array binding signal (z-score),Gal4S6S(b1-4)GlcNAc,0.335
same,glycan array binding signal (z-score),Gal6S(b1-4)Glc,0.112
same,glycan array binding signal (z-score),Gal6S(b1-4)Glc6S,1.85
same,glycan array binding signal (z-score),Gal6S(b1-4)GlcNAc,1.22
same,glycan array binding signal (z-score),Gal6S(b1-4)GlcNAc6S,0.081
same,glycan array binding signal (z-score),GalNAc(a1-3)Gal,1.65
same,glycan array binding signal (z-score),GalNAc(a1-3)GalNAc,-0.083
same,glycan array binding signal (z-score),GalNAc(b1-3)Gal,1.36
same,glycan array binding signal (z-score),[1],0.309
same,glycan array binding signal (z-score),GalNAc(b1-3)GalNAc,0.062
same,glycan array binding signal (z-score),GalNAc(b1-4)GlcNAc,0.15
same,glycan array binding signal (z-score),Glc(a1-4)Glc,-0.422
same,glycan array binding signal (z-score),Glc(a1-6)Glc(a1-6)Glc,-0.263
same,glycan array binding signal (z-score),Glc(b1-4)Glc,-0.191
same,glycan array binding signal (z-score),Glc(b1-6)Glc,-0.514
same,glycan array binding signal (z-score),GlcA(b1-3)Gal,0.192
same,glycan array binding signal (z-score),GlcA(b1-3)GlcNAc,0.16
same,glycan array binding signal (z-score),GlcA(b1-6)Gal,-0.073
same,glycan array binding signal (z-score),[2],-0.149
same,glycan array binding signal (z-score),[3],0.288
same,glycan array binding signal (z-score),[4],-0.634
same,glycan array binding signal (z-score),[5],-0.026
same,glycan array binding signal (z-score),GlcNAc(b1-3)Gal,0.2
same,glycan array binding signal (z-score),[6],-0.138
same,glycan array binding signal (z-score),GlcNAc(b1-3)Gal(b1-4)Glc,0.579
same,glycan array binding signal (z-score),[7],-0.119
same,glycan array binding signal (z-score),[8],-0.184
same,glycan array binding signal (z-score),GlcNAc(b1-3)GalNAc,0.269
same,glycan array binding signal (z-score),GlcNAc(b1-3)Man,-0.462
same,glycan array binding signal (z-score),[9],-0.048
same,glycan array binding signal (z-score),[10],0.15
same,glycan array binding signal (z-score),[11],-0.443
same,glycan array binding signal (z-score),[12],-0.568
same,glycan array binding signal (z-score),GlcNAc(b1-4)GlcNAc,0.001
same,glycan array binding signal (z-score),[13],0.949
same,glycan array binding signal (z-score),[14],-0.259
same,glycan array binding signal (z-score),[15],-0.307

# A stretch of the results above:
binder,measurement,setting,value
B1,glycan array binding signal (z-score),GlcNAc(b1-3)Gal(b1-4)Glc,0.579
same,glycan array binding signal (z-score),[7],-0.119
